What all share (experiment): co-IP; native NP-40 lysates of S. pombe strains with tagged proteins; IP with anti-GFP, anti-V5 or anti-FLAG and Protein G Sepharose, or IgG Sepharose; immunoblot; wild-type background, for Ubp9 and Bun62 also bun107-null
The target in one assay is T1, Ubp4-GFP (S. pombe) (UniProt O60139).
T1 sequence: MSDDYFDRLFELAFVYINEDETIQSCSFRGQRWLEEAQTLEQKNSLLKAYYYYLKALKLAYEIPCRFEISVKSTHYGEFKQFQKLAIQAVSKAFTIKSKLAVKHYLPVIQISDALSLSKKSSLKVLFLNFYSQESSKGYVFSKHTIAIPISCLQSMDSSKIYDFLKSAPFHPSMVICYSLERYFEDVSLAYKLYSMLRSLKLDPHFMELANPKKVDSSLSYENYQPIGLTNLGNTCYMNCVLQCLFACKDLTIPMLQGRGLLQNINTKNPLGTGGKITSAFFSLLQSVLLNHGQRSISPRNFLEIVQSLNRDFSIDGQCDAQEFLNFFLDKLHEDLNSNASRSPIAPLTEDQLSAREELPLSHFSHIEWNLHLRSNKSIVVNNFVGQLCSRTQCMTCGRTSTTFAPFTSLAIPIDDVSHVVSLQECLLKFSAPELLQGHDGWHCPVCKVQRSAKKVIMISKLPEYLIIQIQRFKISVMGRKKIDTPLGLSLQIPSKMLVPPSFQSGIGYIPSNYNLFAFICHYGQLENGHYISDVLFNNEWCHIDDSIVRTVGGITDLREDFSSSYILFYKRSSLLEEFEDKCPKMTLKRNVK

A further assay has as its target T2, TAP-Ubp11 (S. pombe) (UniProt Q9UUD6).
T2 sequence: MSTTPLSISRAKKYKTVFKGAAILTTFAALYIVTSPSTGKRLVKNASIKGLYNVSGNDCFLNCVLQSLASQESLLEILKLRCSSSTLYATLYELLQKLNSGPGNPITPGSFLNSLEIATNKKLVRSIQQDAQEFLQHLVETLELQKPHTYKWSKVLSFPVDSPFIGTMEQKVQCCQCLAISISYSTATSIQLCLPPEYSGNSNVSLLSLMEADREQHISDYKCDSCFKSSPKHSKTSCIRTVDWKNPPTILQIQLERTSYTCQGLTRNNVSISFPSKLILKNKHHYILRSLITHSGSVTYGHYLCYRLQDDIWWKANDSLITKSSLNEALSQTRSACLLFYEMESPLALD

The next assay addresses T3, Ubp9-GFP (S. pombe) (UniProt Q9P7V9).
T3 sequence: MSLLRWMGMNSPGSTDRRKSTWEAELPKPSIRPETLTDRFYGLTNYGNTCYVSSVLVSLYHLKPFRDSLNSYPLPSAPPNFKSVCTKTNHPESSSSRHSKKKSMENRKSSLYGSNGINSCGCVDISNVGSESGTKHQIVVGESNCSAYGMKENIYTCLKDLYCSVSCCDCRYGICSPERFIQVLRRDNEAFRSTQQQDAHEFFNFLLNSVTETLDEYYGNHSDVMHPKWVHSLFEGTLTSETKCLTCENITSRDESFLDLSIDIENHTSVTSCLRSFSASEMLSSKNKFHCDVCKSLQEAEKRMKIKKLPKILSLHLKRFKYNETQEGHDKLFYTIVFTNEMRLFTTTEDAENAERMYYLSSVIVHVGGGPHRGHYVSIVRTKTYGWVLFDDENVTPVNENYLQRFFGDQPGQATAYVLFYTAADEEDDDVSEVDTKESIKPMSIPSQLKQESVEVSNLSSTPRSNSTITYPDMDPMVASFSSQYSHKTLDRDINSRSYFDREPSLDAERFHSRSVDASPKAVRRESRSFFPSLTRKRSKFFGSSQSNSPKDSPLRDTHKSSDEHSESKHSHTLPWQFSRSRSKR

Assay [1] deals with T4, Bun62, tagged form used in the co-IPs of Figure S13D (S. pombe) (UniProt Q10437).
T4 sequence: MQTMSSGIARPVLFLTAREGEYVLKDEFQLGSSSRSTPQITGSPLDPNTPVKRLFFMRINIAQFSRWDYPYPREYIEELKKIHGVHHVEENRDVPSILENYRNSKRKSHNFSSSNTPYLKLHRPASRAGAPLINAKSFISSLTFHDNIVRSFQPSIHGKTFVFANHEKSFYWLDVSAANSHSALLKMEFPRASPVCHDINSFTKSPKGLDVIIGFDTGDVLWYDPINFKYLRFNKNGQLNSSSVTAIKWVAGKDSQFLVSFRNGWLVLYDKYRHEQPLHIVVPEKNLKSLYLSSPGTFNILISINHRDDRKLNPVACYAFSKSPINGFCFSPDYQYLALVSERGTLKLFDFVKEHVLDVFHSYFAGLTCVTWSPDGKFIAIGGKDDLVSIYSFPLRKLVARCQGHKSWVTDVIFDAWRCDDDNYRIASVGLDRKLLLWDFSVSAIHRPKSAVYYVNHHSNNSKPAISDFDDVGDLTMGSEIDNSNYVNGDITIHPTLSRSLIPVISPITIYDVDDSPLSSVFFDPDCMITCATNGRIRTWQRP

Results are given in words; binding and its absence hold for the method and conditions named. In cells and extracts the contact can be indirect. Some results given as binding are weak or reduced against the parent protein; the word gives no strength. Where a sequence is shown, tags or fusion partners need not be part of it.

B1: Sfp47-FLAG (protein, UniProt O14259 1-415)
chain: MNSFSSNEYSTEISTEALNNWQQLVEQRISLELEYAAKLAKLTKSIKAIKQCAPLNDLTKQVCVELMQCNKKHLEASRYFQTHVKEFMKEYVDRENKFSNETISKSSAAALMTSMENFILFTNPVYHNKLQVPSKSDMEIANSLKITQPAEKNSGTANPISAYSLEHAELDERNNQLSEALSMLRLSPFVNNYYPSYQNRKDGKSLMENRGVVLSVDTVTSPISQSPKKLTPTTSPINSTSLSFVDAKKPGSKWPSQYDFPKKTKSTEIPFKTLPSLNINNERELTKHKLPIVKPKLAVFPSNQATASTLQLAPPPVQAIPTLRNPVNLDDKKESLLKYYATHPTITPDGFPIFAYVRALYAYKATLPSEIDLNVDDTLVVLNRQKDGWWKGLVVSPTVGRIGLFPSNYIEELEY
B1: in the assay with Ubp4-GFP (S. pombe), the binding entry is recorded as “binds”.

B2: Tom70-GFP (protein, UniProt O14217 1-625)
chain: MSGISNAENGKAIVSSGVLNSVSAFVRRHRTFVYTIGAVAVFATVGGVYHVQQKKASHKRSKKLKAHQDKAESKVNEGKNEAAKVVKEEDLKSSETGKDVETAAAAAAAAKKKKKNKKKVKAKKVGDSSVDKIATEESVKSMTKEERAKLAAELKTLGNKAYGQKEYANAIDYYTQAITCSHDPIFFSNRAACYAAIGDFEQVIKDTSEALSLDSSYVKALNRRSAAYEQLGKLDEALMDSTVSCIFDGFANESMTATVERLLKKVAEKKSSALLKERPPKLPAASFIQTYLDSFHAQPKPLFDNKFDGDAALAEAYEYLEKGEYQLSYDKAKESCLGSFSSPSVNARTHNLVGTFKFVSGDSKGSMENFNAAIKLDRKFIQPYIRLSAAYLDENDNEKMWKVLNDAESVDKTDSDLYYHRAQVRFVSGEFAEAISDYQKSIALDDSFIYSHIQLGVAQYKTHAIAESMKTFEDCKKRFPNSSEVYNYFGEILLDQQKFDDAVKNFDHAIELEKREHLTIMSAMPLINKALAVFQWKKDISQAENLCRQALSADPECDIAIASMAQFLLQQGKAREALEYFEKSAQLARTESEMVNAFSYAEATRTQIALTEKYPQLVGRLSNPM
B2: the binding result with TAP-Ubp11 (S. pombe) is listed as “binds”.

B3: Bun62, tagged form used in the co-IPs of Figure S13D (protein, UniProt Q10437 1-543)
chain: T4 sequence
On to B3, for which the binding result with Ubp9-GFP (S. pombe) was “binds”.

B4: Ubp9-GFP (enzyme, UniProt Q9P7V9 1-585)
chain: T3 sequence
Take B4: in assay [1], the binding result is given as “binds”.

The record behind these values is PMC2935449.
